Assay results from the supplement of paper PMC4635364.
Structures can show the parent of a compound that is named as a salt. The list shows a part of the results. Single values are uncertain here, since repeats match poorly.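 ReNCell VM, a human fetal ventral-midbrain neural progenitor line, was differentiated without mitogens. Blinded raters scored images stained for doublecortin (early neurons) or tyrosine hydroxylase (dopaminergic neurons) against untreated wells (0 = no change). Scores were averaged across repeats and both raters, and compounds averaging 2 or more were selected as hits for retesting.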

Tested on: ReNCell VM
Experiment: neuronal differentiation score (DCX+ cell fraction vs untreated, manual image score) (score (-3 to 3)); higher = more neuronal differentiation
Settings: library: LOPAC; 2 uM; 2 weeks

Neuronal differentiation score, inactive:
C[C@]12CCC(=O)C=C1CC[C@@H]1[C@@H]2CC[C@@]2(C)[C@H]1CC[C@]2(O)C(=O)CO [Cortexolone] 0
CC(=O)OCC1=C(C(=O)O)N2C(=O)[C@@H](NC(=O)Cc3cccs3)[C@H]2SC1 [Cephalothin sodium] 1
CCCCCCCC/C=C\CCCCCCCC(=O)O [Oleic Acid] 0
CNC(=O)c1cc2c(cn1)[nH]c1ccccc12 [N-Methyl-beta-carboline-3-carboxamide] 0

Same assay, conditions: library: Prestwick; 2 uM; 2 weeks

Neuronal differentiation score, inactive:
CC(CN(C)C)CN1c2ccccc2Sc2ccccc21 (stereo unspecified) [Trimeprazine tartrate] 0
CCOC(=O)C1=C(COCCN)NC(C)=C(C(=O)OC)C1c1ccccc1Cl (stereo unspecified) [Amlodipine] 0
CC1(C)S[C@@H]2[C@H](NC(=O)[C@H](C(=O)O)c3ccsc3)C(=O)N2[C@H]1C(=O)O [Ticarcillin sodium] 0
Cc1cc(NC(=O)C2=C(O)c3ccccc3S(=O)(=O)N2C)no1 [Isoxicam] 0
CC(=O)/N=c1/sc(S(N)(=O)=O)nn1C [Methazolamide] 0
Cn1c([N+](=O)[O-])cnc1COC(N)=O [Ronidazole] 0
COc1cc(C)c(/C=C/C(C)=C/C=C/C(C)=C/C(=O)O)c(C)c1C [Acitretin] 0
CCCCCCCN(CC)CCCC(O)c1ccc(NS(C)(=O)=O)cc1 (stereo unspecified) [Ibutilide fumarate] 0
COc1ccc(-c2cc(=S)ss2)cc1 [Anethole-trithione] 0

Not a retest: entries from further up.
Neuronal differentiation score, inactive:
CC1(C)S[C@@H]2[C@H](NC(=O)[C@H](C(=O)O)c3ccsc3)C(=O)N2[C@H]1C(=O)O [Ticarcillin sodium] 0
Cc1cc(NC(=O)C2=C(O)c3ccccc3S(=O)(=O)N2C)no1 [Isoxicam] 0
CC(=O)/N=c1/sc(S(N)(=O)=O)nn1C [Methazolamide] 0

Same assay, conditions: library: Spectrum; 2 uM; 2 weeks

Neuronal differentiation score, inactive:
CCCCC(=O)O[C@]1(C(=O)CO)CC[C@H]2[C@@H]3CCC4=CC(=O)CC[C@]4(C)[C@H]3[C@@H](O)C[C@@]21C 0
O=C([O-])C(O)[C@H](O)[C@@H](O)[C@H](O)[C@H](O)CO.O=C([O-])C(O)[C@H](O)[C@@H](O)[C@H](O)[C@H](O)CO.[Ca+2] (stereo partly specified) 0
COc1cnc(NS(=O)(=O)c2ccc(N)cc2)nc1 0
CCC1(c2ccccc2)C(=O)NCNC1=O 0
Cc1c(S(=O)(=O)O)oc2c1C(=O)C(=O)c1c-2ccc2c1CCCC2(C)C 0
CCN(CCCCOC(=O)c1ccc(OC)c(OC)c1)C(C)Cc1ccc(OC)cc1 (stereo unspecified) 0
COc1ccc(CN2CCN(C(c3ccc(F)cc3)c3ccc(F)cc3)CC2)c(OC)c1OC 0
Cc1ncc(COP(=O)([O-])[O-])c(CN(CCN(CC(=O)O)Cc2c(COP(=O)([O-])O)cnc(C)c2O)CC(=O)O)c1O.[Mn].[Na+].[Na+].[Na+] 0
CN1[C@@H](CC(=O)c2ccccc2)CCC[C@H]1C[C@H](O)c1ccccc1 0
CC[n+]1c(-c2ccccc2)c2cc(N)ccc2c2ccc(N)cc21 0
CC(C)(C)C(=O)C(Oc1ccc(Cl)cc1)n1ccnc1 (stereo unspecified) 0
NC(=O)N1c2ccccc2CC(=O)c2ccccc21 0
CC(=O)OC1CC2CCC1(C)C2(C)C (stereo unspecified) 0
CN1CCCN=C1COC(=O)C(O)(c1ccccc1)C1CCCCC1 (stereo unspecified) 0
O=C(c1ccccc1)c1ccc2n1CCC2C(=O)O (stereo unspecified) 0
COC(=O)[C@@H]1OC(=O)C2OC23[C@@]1(C)CCC1[C@]2(C)C(C[C@@H](O)[C@]13C)C(C)(C)[C@H](OC(C)=O)C[C@@H]2OC(C)=O (stereo partly specified) 0
CC(=O)O[C@H]1C[C@@H](OC(C)=O)C(C)(C)C2C[C@@H](O)[C@]3(C)C(CC[C@@]4(C)[C@H](c5ccoc5)OC(=O)[C@H]5O[C@]543)[C@]21C (stereo partly specified) 0
C[C@@]12CCc3occc3[C@H]1CC[C@@]13C[C@@H](CC[C@H]12)[C@@](O)(CO)C3 0
